# Measurements reported in article PMC3968176.
# The chains behind the UniProt entries cited, without tags or fusion partners.
# UniProt Q05037: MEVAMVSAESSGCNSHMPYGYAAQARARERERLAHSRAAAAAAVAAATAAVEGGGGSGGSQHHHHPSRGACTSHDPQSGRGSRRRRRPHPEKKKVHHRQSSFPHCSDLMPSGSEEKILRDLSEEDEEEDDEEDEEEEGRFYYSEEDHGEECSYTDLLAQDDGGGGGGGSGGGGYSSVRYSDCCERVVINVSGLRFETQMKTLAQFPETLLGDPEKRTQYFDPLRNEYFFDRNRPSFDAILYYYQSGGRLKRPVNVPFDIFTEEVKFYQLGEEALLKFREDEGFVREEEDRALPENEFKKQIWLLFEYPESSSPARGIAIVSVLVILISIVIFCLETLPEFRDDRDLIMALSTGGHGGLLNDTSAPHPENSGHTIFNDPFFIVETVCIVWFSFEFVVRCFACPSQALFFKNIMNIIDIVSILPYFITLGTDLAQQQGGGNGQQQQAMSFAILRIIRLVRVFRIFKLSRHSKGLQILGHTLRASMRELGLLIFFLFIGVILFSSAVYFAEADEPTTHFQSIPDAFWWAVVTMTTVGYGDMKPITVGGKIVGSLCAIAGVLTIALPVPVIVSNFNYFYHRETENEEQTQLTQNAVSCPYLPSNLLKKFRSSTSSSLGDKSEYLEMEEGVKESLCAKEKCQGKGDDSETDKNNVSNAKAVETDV
# Results are given in words; binding and its absence hold for the method and conditions named. In cells and extracts the contact can be indirect. Some binding calls cover weakened binding; strength is not graded here.
# Molecular target: bovine Kv1.4 (bovine) (UniProt Q05037)
# Experiment: cross-linking; disulfide linkage between subunits in oocytes expressing bKv1.4, untreated or incubated with 1 mM tBHP or 1 mM diamide for 15 min; extracts separated by SDS-PAGE under non-reducing or reducing (100 mM DTT) conditions, Western blot with anti-Kv1.4
substance,measurement,value
bovine Kv1.4 (from UniProt Q05037 1-660),binding,binds
